Experimental data: the supplement of paper PMC12823440, “Inhibitors supercharge kinase turnover through native proteolytic circuits” (Nature, 2025)
Some of the results follow. Hit calls seldom repeat between salt and free forms of one compound.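 In K562 cells expressing nanoluciferase-fused kinases, luminescence was recorded at 4 h intervals between 2 and 18 h, normalized as percent of control with DMSO at 100% and a positive control at 0%. A significant (2 sigma) signal drop marks a time point as decreased. The authors' rule for a hit is not shown and takes in more than the number of time points.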

Chains of the proteins cited; added tags and fusions are not shown. Lines headed by an entry give the natural chain unless they say otherwise; changes in a name come on top.
UniProt Q05397, whole entry, looked up: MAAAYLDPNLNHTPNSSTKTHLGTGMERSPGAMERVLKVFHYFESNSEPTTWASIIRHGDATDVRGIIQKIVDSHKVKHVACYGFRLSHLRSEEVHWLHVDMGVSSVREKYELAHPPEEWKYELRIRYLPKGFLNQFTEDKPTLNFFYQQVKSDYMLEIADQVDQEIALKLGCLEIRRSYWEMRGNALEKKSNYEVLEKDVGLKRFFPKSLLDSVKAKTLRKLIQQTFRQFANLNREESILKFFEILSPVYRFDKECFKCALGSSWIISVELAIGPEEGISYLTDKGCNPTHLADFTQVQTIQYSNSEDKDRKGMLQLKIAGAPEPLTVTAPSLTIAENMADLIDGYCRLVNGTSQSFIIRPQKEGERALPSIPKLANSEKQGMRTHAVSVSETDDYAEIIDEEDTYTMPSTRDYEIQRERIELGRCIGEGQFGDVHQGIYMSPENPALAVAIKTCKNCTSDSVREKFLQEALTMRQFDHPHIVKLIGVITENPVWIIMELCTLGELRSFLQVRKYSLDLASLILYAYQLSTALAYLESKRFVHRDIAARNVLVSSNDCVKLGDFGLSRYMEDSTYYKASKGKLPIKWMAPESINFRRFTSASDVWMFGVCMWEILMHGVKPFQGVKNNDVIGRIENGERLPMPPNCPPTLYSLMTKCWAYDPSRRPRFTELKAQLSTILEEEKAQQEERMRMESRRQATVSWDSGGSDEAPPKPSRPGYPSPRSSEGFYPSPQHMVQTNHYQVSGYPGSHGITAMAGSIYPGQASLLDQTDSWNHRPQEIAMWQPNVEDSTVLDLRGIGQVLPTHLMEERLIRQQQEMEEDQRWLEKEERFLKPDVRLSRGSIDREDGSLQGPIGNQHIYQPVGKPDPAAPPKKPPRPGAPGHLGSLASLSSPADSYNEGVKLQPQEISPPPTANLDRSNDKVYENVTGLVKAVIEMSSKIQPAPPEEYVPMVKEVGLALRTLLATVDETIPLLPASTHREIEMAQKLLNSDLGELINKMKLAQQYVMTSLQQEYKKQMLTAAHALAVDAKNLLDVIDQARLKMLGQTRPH
UniProt Q13546: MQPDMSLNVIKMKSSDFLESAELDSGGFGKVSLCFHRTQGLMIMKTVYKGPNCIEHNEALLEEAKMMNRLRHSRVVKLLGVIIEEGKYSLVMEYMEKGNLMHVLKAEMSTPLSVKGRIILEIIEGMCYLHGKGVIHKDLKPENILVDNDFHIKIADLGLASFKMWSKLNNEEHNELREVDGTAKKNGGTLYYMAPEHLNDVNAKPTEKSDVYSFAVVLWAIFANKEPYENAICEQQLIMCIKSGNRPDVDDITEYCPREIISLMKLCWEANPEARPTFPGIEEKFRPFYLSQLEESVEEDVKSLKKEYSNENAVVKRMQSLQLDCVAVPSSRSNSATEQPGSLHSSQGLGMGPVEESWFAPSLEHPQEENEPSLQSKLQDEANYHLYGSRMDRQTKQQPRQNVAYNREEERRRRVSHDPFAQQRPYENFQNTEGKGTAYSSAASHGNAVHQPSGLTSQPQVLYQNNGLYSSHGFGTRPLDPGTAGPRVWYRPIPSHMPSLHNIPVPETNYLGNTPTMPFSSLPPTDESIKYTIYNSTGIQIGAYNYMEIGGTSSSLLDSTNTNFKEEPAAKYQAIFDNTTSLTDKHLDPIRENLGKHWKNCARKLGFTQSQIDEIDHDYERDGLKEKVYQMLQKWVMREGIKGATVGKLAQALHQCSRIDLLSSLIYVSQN
UniProt Q01974, whole entry: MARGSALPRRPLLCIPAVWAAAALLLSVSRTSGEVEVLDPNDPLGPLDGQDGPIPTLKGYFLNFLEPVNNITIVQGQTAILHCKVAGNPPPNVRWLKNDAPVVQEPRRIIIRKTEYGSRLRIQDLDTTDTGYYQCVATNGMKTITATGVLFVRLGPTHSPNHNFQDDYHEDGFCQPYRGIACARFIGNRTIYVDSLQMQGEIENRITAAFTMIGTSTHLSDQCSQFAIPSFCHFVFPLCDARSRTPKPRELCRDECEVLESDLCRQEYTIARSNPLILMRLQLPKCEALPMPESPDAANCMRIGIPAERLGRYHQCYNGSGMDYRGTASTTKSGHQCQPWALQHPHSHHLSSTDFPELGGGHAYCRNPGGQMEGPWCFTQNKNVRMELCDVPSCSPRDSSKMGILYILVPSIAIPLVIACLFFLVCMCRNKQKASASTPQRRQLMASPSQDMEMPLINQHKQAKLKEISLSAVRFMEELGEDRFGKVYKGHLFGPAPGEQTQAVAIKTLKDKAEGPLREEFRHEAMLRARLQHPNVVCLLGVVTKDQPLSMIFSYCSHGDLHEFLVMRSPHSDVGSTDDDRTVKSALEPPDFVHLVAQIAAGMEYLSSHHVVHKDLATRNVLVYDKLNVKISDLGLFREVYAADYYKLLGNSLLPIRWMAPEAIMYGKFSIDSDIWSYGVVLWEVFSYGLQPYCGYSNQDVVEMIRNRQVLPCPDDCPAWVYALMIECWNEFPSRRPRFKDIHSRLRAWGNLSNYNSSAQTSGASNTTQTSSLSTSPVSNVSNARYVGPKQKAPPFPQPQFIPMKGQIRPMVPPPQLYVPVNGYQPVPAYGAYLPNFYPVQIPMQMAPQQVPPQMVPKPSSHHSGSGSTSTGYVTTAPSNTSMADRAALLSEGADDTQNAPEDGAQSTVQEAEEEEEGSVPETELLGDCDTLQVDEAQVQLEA
UniProt Q15418, whole entry: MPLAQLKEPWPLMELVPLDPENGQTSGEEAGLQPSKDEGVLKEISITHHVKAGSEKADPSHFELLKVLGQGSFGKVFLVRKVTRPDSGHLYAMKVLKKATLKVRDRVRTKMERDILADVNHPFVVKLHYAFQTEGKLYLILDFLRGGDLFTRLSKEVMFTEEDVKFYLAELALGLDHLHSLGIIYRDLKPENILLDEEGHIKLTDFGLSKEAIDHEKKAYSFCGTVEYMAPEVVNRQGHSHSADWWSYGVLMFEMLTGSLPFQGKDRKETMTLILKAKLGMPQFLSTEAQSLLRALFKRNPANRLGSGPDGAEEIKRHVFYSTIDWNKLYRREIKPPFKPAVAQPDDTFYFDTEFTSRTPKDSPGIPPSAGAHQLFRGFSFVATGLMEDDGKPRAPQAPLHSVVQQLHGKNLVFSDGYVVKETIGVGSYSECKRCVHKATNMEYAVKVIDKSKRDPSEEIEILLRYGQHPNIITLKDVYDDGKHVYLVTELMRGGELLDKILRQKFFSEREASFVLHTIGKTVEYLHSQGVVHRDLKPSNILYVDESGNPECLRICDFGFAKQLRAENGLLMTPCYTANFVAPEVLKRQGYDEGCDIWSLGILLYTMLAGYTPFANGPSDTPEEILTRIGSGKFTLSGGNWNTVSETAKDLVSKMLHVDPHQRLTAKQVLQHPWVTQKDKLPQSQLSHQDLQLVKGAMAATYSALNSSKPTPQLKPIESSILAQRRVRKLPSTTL
UniProt Q9Y6E0: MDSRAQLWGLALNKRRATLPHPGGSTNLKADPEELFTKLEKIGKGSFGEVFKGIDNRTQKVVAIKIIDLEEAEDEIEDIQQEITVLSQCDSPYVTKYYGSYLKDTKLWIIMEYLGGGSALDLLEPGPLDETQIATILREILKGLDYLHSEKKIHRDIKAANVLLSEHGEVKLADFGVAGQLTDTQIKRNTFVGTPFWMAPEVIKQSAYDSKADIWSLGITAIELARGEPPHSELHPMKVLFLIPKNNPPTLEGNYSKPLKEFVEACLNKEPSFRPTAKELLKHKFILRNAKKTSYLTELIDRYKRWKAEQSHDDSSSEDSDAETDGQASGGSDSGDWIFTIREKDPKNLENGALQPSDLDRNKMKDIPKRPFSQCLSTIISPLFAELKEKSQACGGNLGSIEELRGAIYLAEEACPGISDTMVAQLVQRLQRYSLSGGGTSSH
UniProt P42680: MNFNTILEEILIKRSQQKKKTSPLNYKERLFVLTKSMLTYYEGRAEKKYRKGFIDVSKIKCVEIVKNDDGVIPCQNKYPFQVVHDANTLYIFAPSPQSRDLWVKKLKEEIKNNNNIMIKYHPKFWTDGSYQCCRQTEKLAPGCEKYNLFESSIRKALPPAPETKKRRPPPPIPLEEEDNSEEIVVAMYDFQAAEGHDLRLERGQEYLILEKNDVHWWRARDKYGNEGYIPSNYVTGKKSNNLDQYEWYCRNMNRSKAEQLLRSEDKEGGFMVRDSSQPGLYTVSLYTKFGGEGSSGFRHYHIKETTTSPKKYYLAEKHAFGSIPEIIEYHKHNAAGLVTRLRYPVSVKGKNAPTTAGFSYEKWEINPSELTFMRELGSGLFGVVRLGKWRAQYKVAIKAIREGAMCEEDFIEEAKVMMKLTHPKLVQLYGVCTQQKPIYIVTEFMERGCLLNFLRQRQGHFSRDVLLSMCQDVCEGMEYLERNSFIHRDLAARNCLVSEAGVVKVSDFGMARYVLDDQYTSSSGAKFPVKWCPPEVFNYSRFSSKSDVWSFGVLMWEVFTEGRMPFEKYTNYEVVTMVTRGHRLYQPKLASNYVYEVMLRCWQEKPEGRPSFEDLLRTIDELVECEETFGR
UniProt P29597: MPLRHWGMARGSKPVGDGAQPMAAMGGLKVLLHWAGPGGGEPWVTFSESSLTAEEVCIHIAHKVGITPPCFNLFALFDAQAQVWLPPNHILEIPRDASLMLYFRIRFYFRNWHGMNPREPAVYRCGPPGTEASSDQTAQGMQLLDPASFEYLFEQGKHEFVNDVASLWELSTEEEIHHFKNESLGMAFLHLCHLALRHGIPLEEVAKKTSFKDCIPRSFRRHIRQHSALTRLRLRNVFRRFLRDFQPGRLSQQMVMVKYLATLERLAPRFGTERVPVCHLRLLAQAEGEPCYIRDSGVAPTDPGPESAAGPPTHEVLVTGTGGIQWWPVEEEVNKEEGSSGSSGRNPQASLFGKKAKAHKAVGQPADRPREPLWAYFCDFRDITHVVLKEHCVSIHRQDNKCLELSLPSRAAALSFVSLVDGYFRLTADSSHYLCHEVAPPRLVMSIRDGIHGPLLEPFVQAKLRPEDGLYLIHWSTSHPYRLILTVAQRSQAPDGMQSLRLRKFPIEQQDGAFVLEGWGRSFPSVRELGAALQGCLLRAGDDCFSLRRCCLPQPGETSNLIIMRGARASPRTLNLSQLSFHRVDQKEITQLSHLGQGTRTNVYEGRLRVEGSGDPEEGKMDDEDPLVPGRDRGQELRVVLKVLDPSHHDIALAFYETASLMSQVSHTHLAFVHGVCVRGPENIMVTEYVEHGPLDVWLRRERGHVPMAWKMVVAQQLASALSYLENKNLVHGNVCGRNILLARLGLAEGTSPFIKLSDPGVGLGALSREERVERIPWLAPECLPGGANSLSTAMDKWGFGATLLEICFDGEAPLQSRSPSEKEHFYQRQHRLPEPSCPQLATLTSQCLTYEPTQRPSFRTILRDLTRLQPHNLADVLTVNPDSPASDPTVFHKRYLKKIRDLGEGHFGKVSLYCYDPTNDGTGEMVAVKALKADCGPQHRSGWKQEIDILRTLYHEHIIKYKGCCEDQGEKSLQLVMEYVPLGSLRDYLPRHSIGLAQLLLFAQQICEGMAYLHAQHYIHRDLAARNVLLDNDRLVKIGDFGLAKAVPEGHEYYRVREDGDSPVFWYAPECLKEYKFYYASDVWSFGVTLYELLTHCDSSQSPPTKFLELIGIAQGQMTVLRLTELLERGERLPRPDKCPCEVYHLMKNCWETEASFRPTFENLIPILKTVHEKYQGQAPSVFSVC

Assays:
Experiment in all cases: number of time points (of 5) at which kinase-Nluc abundance scored as decreased, DMSO-normalised (count); higher = more persistent destabilization
Conditions in all cases: K562; 2-18 h
PRKCA = PRKCA (UniProt P17252)
PTK2 = PTK2 (UniProt Q05397)
PTK2B = PTK2B (UniProt Q14289)
RAF1 = RAF1 (UniProt P04049)
[1] = molecular target: RAF1_S257L (clone: RAF1_mut) (UniProt P04049)
RET = RET (UniProt P07949)
[2] = molecular target: RET_M918T (clone: RET_mut) (UniProt P07949)
RIOK1 = RIOK1 (UniProt Q9BRS2)
RIPK1 = RIPK1 (UniProt Q13546)
RIPK2 = RIPK2 (UniProt O43353)
ROR2 = ROR2 (UniProt Q01974)
RPS6KA1 = RPS6KA1 (UniProt Q15418)
SPHK1 = SPHK1 (UniProt Q9NYA1)
SRC = SRC (UniProt P12931)
STK24 = STK24 (UniProt Q9Y6E0)
STK38 = STK38 (UniProt Q15208)
SYK = SYK (UniProt P43405)
TEC = TEC (UniProt P42680)
TYK2 = TYK2 (UniProt P29597)
ULK3 = ULK3 (UniProt Q6PHR2)

Row | Compound | number of time points (PRKCA) | number of time points (PTK2) | number of time points (PTK2B) | number of time points (RAF1) | number of time points [1] | number of time points (RET) | number of time points [2] | number of time points (RIOK1) | number of time points (RIPK1) | number of time points (RIPK2) | number of time points (ROR2) | number of time points (RPS6KA1) | number of time points (SPHK1) | number of time points (SRC) | number of time points (STK24) | number of time points (STK38) | number of time points (SYK) | number of time points (TEC) | number of time points (TYK2) | number of time points (ULK3)
1 | COc1cc(Oc2ccnc3cc(OC)c(OC)cc23)ccc1NC(=O)NC(C)c1nccs1 (stereo not given) (2.5 µM) | 0 | 0 | 0 | 0 | 0 | 0 | 0 | 0 | 0 | 0 | 0 | 0 | 0 | 0 | 0 | 0 | 0 | 0 | 0 | 0
2 | CC(C)Oc1cc(Nc2nc(N[C@@H](C)c3ccc(F)cn3)ncc2Cl)n[nH]1 (10 µM) | 0 | 0 | 0 | 0 | 1 | 0 | 0 | 0 | 0 | 0 | 0 | 0 | 0 | 0 | 0 | 0 | 0 | 0 | 0 | 0
3 | CCOc1ccn(-c2ccc(F)cc2)c(=O)c1C(=O)Nc1ccc(Oc2ccnc(N)c2Cl)c(F)c1 (10 µM) | 0 | 1 | 1 | 1 | 4 | 2 | 0 | 2 | 1 | 3 | 0 | 0 | 0 | 0 | 0 | 0 | 0 | 1 | 1 | 3
4 | CC1(C)CC=C(c2nc(C3CC(C)(C)OC(C)(C)C3)ccc2NC(=O)c2nc(C#N)c[nH]2)CC1 [Edicotinib] (2.5 µM) | 0 | 0 | 0 | 0 | 0 | 0 | 0 | 0 | 0 | 0 | 0 | 0 | 0 | 0 | 0 | 0 | 0 | 0 | 0 | 0
5 | CN1CCN(c2ccc(C(=O)Nc3n[nH]c4ccc(Cc5cc(F)cc(F)c5)cc34)c(NC3CCOCC3)c2)CC1 [Entrectinib] (2.5 µM) | 0 | 0 | 0 | 0 | 0 | 0 | 0 | 0 | 0 | 0 | 0 | 0 | 0 | 0 | 0 | 0 | 0 | 0 | 0 | 1
6 | O=c1cc(N2CCOCC2)oc2c(-c3ccccc3)cccc12 (10 µM) | 0 | 0 | 0 | 0 | 0 | 0 | 0 | 0 | 0 | 0 | 0 | 0 | 0 | 0 | 0 | 0 | 0 | 0 | 0 | 0
7 | CC(C)(C)c1nc2c3cc[nH]c(=O)c3c3cc(F)ccc3c2[nH]1 [Pyridone 6] (10 µM) | 0 | 0 | 0 | 0 | 0 | 0 | 0 | 0 | 0 | 0 | 0 | 0 | 0 | 0 | 0 | 0 | 0 | 0 | 0 | 0
8 | CC(C)=CC/C=C(\C)[C@H]1CC[C@]2(C)[C@@H]1[C@H](O)C[C@@H]1[C@@]3(C)CC[C@H](O[C@@H]4O[C@H](CO)[C@@H](O)[C@H](O)[C@H]4O[C@@H]4O[C@H](CO)[C@@H](O)[C@H](O)[C@H]4O)C(C)(C)[C@@H]3CC[C@]12C [Ginsenoside Rg5] (10 µM) | 0 | 0 | 0 | 0 | 0 | 0 | 0 | 0 | 0 | 0 | 0 | 0 | 0 | 0 | 0 | 0 | 0 | 0 | 0 | 0
9 | CC(C)C(=O)Nc1ncc(-c2cc(C(F)F)nn2-c2c(Cl)cccc2Cl)s1 (10 µM) | 0 | 5 | 0 | 0 | 0 | 0 | 0 | 0 | 0 | 0 | 0 | 0 | 5 | 1 | 0 | 0 | 0 | 0 | 5 | 0
10 | CCC(=O)N1CCN(c2ccc(-n3c(=O)ccc4cnc5ccc(-c6cnc7ccccc7c6)cc5c43)cc2C(F)(F)F)CC1 [Torin 1] (2 µM) | 0 | 1 | 0 | 0 | 0 | 4 | 3 | 0 | 3 | 0 | 0 | 0 | 0 | 0 | 0 | 1 | 0 | 0 | 4 | 0
11 | O=C(Nc1ccc(-c2ccnc(Nc3ccc(N4CCOCC4)cc3)n2)cc1)C1CCCN1 (stereo not given) (10 µM) | 0 | 0 | 0 | 0 | 0 | 0 | 0 | 0 | 0 | 0 | 0 | 0 | 0 | 0 | 0 | 0 | 0 | 0 | 0 | 0
12 | Cn1c(=O)n(-c2ccc(C(C)(C)C#N)cc2)c2c3cc(-c4cnc5ccccc5c4)ccc3ncc21 [Dactolisib (Tosylate)] (10 µM) | 0 | 2 | 2 | 3 | 0 | 4 | 5 | 0 | 2 | 1 | 0 | 0 | 0 | 0 | 0 | 1 | 0 | 1 | 4 | 3
13 | C=CC(=O)N1CCC[C@@H](n2nc(-c3ccc(Oc4ccccc4)cc3)c(C(N)=O)c2N)C1 [Btk inhibitor 2] (10 µM) | 0 | 0 | 0 | 0 | 0 | 0 | 0 | 0 | 0 | 0 | 0 | 0 | 0 | 0 | 0 | 0 | 0 | 0 | 0 | 0
14 | Nc1nc(N)c(N=O)c(OCC2CCCCC2)n1 (10 µM) | 0 | 0 | 0 | 0 | 0 | 0 | 0 | 0 | 0 | 0 | 0 | 0 | 0 | 0 | 0 | 0 | 0 | 0 | 0 | 0
15 | COC(=O)c1ccc2c(C(=Nc3ccc(N(C)C(=O)CN4CCN(C)CC4)cc3)c3ccccc3)c(O)[nH]c2c1 [Nintedanib] (2.5 µM) | 0 | 0 | 0 | 0 | 0 | 0 | 0 | 0 | 0 | 0 | 0 | 0 | 0 | 0 | 0 | 0 | 0 | 0 | 0 | 0
16 | COc1ccc(NC(=O)N2CCN(c3nc(N)nc4c3cnn4C)[C@@H](C)C2)c(C)c1 (10 µM) | 0 | 0 | 0 | 0 | 0 | 0 | 0 | 0 | 0 | 0 | 0 | 0 | 0 | 0 | 0 | 0 | 0 | 0 | 0 | 0
17 | COc1cc(OC)c(F)c(COc2cnc(Nc3cnn(CCO)c3)nc2)c1F (2.5 µM) | 0 | 1 | 0 | 0 | 0 | 1 | 0 | 1 | 0 | 2 | 0 | 0 | 0 | 0 | 0 | 0 | 0 | 0 | 3 | 0
18 | CC(C)c1ccc2oc3nc(N)c(C(=O)O)cc3c(=O)c2c1 [Amlexanox] (10 µM) | 0 | 0 | 0 | 0 | 0 | 0 | 0 | 0 | 0 | 0 | 0 | 0 | 0 | 0 | 0 | 0 | 0 | 0 | 0 | 0
19 | CNc1nc(-c2ccc3c(N)n[nH]c3c2)cc(N2C[C@@H](C(=O)NC3CCCCC3)CC[C@H]2C)n1 (10 µM) | 0 | 0 | 0 | 0 | 0 | 0 | 0 | 0 | 0 | 0 | 0 | 0 | 0 | 0 | 0 | 0 | 0 | 0 | 0 | 0
20 | C=CC(=O)N1CC[C@H](n2nc(C#Cc3cc(OC)cc(OC)c3)c3c(N)ncnc32)C1 [Futibatinib] (10 µM) | 0 | 0 | 0 | 0 | 0 | 0 | 0 | 0 | 0 | 0 | 0 | 0 | 0 | 0 | 0 | 0 | 0 | 0 | 0 | 0
21 | Nc1ncnc2c1c(-c1cccc(OCc3ccccc3)c1)cn2C1CC(CN2CCCC2)C1 (stereo not given) (2.5 µM) | 0 | 0 | 0 | 0 | 0 | 0 | 0 | 0 | 0 | 0 | 0 | 0 | 0 | 0 | 0 | 0 | 0 | 0 | 0 | 0
22 | O=C1Cc2c([nH]c3ccc(Br)cc23)-c2ncccc2N1 [1-Azakenpaullone] (10 µM) | 0 | 0 | 0 | 0 | 0 | 0 | 0 | 0 | 0 | 0 | 0 | 0 | 0 | 0 | 0 | 0 | 0 | 0 | 0 | 0
23 | COc1cc2ncnc(Nc3cccc(O)c3)c2cc1OC (10 µM) | 0 | 3 | 1 | 2 | 5 | 2 | 1 | 2 | 3 | 4 | 0 | 0 | 0 | 0 | 0 | 1 | 0 | 2 | 3 | 4
24 | COc1cc2c(Nc3ccc(Br)cc3F)ncnc2cc1OCCn1ccnn1 (10 µM) | 0 | 0 | 0 | 0 | 0 | 0 | 0 | 0 | 0 | 0 | 0 | 0 | 0 | 0 | 0 | 0 | 0 | 0 | 0 | 0
25 | Cc1cc(F)c(C(=O)Nc2cccc(-c3nncn3C(C)C)n2)cc1-n1cnc(C2CC2)c1 [Selonsertib] (10 µM) | 0 | 0 | 0 | 0 | 0 | 0 | 0 | 0 | 0 | 0 | 0 | 0 | 0 | 0 | 0 | 0 | 0 | 0 | 0 | 0

By substructure, the compounds so far with bromine
Row | Compound | number of time points (PRKCA) | number of time points (PTK2) | number of time points (PTK2B) | number of time points (RAF1) | number of time points [1] | number of time points (RET) | number of time points [2] | number of time points (RIOK1) | number of time points (RIPK1) | number of time points (RIPK2) | number of time points (ROR2) | number of time points (RPS6KA1) | number of time points (SPHK1) | number of time points (SRC) | number of time points (STK24) | number of time points (STK38) | number of time points (SYK) | number of time points (TEC) | number of time points (TYK2) | number of time points (ULK3)
22 | O=C1Cc2c([nH]c3ccc(Br)cc23)-c2ncccc2N1 [1-Azakenpaullone] (10 µM) | 0 | 0 | 0 | 0 | 0 | 0 | 0 | 0 | 0 | 0 | 0 | 0 | 0 | 0 | 0 | 0 | 0 | 0 | 0 | 0
24 | COc1cc2c(Nc3ccc(Br)cc3F)ncnc2cc1OCCn1ccnn1 (10 µM) | 0 | 0 | 0 | 0 | 0 | 0 | 0 | 0 | 0 | 0 | 0 | 0 | 0 | 0 | 0 | 0 | 0 | 0 | 0 | 0
